Measurements published in paper PMC10967792.
No constants are given. Whether binding was seen depends on the method and setting. In cells and extracts the contact can be indirect. Some results given as binding are weak or reduced against the parent protein; the word gives no strength.

The chains behind the UniProt entries cited, without tags or fusion partners. Residues count along the entry.
UniProt P32248, residues 25-378: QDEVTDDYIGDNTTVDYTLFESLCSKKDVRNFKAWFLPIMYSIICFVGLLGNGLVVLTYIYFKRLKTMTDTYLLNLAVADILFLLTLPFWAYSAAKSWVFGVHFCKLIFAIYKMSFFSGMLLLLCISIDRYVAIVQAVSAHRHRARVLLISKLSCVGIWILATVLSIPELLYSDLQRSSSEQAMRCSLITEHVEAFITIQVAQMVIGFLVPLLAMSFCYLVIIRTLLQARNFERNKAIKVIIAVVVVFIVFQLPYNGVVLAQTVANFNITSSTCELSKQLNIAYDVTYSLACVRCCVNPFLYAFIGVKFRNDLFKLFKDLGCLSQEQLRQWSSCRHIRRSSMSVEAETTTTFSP
UniProt P49407: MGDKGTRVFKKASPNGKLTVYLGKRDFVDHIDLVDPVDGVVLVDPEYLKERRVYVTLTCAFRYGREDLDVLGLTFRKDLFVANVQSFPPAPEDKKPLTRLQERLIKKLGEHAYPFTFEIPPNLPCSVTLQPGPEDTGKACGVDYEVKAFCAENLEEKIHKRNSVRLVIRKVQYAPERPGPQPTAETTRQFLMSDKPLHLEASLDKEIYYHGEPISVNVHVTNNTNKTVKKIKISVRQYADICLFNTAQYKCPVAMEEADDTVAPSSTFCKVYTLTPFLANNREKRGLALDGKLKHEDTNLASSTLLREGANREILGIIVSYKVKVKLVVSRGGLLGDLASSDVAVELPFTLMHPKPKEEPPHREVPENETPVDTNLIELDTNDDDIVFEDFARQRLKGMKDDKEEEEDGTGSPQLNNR
UniProt P32121: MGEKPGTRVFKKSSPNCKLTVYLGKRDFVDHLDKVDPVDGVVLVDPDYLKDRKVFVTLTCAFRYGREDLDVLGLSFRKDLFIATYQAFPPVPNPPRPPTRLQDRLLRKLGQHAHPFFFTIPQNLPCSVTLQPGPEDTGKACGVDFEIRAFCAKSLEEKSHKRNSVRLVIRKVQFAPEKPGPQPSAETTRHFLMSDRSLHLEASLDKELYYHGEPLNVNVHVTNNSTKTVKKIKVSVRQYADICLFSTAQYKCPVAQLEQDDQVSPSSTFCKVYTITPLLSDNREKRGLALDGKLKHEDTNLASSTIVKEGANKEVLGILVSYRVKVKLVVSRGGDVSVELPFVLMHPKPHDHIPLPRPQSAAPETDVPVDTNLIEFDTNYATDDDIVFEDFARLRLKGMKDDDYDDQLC

Target: hCCR7-mNeongreen (CCR7 C-terminally tagged with mNeonGreen) (human) (UniProt P32248)
Assay: FRET or BRET; NanoBRET in live HEK293A, U87 or CHO-K1 cells transiently co-transfected with CCR7-mNeonGreen (acceptor) and NLuc-β-arrestin (donor); stimulated with CCL19 or CCL21, BRET followed in real time for 25 min; HBSS, 20 mM HEPES, 0.5% FBS, pH 7.4

binding | Substance
binds | NLuc-Arrβ1(N) (NanoLuc-tagged β-arrestin1) (from UniProt P49407 1-418)
binds | NLuc-Arrβ2(N) (NanoLuc-tagged β-arrestin2) (from UniProt P32121 1-409)
